Experimental findings from paper PMC3946557 are described below.

Chains of the proteins cited; added tags and fusions are not shown. Residues count along the entry.
UniProt P02649, residues 19-317: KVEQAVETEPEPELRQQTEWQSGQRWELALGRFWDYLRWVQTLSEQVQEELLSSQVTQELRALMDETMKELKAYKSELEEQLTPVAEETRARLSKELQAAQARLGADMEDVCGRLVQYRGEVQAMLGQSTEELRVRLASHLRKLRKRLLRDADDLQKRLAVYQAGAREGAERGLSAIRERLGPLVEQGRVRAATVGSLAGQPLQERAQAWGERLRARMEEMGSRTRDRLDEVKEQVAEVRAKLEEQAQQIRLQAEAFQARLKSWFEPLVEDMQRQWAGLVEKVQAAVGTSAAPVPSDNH

These are yes or no findings as the source states them, for the method shown. In cells and extracts the contact can be indirect. Some binding calls cover weakened binding; strength is not graded here. Tags and fused reporters may be left off the sequences shown.

This test addresses T1, FLAG-tagged GP73 (GP73-FL) (UniProt Q8NBJ4).
T1 sequence: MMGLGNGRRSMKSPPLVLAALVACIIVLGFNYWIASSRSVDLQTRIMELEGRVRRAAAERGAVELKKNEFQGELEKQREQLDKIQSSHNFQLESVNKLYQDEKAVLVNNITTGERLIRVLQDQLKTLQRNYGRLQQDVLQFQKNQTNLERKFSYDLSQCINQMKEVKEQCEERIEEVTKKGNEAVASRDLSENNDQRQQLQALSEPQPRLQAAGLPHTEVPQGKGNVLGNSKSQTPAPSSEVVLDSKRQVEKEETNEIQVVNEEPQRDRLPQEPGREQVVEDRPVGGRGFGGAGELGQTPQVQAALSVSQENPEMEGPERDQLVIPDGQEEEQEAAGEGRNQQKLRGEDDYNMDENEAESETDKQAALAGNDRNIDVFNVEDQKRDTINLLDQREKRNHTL
The experiment in a line: co-IP; 293T cells cotransfected with FLAG-tagged GP73 (or truncations) and HA-tagged APOE; lysis 30 h after transfection in 50 mM Tris-HCl pH 7.4, 150 mM NaCl, 5 mM EDTA, 0.5% NP40; immunoprecipitation with anti-Flag or anti-HA (normal mouse IgG as control) overnight at 4 °C, protein A/G beads, immunoblot. For orientation: Immunoblotting shows a protein as a band on a membrane.

Turning to “HA-tagged APOE (from UniProt P02649 19-317)”, the binding result is “binds”.
